Results from PubChem BioAssay AID445 (National Center for Advancing Translational Sciences (NCATS), 2006).
The list shows a part of the results. The main result of the screen is listed elsewhere. These columns were measured beside it and carry no call. Most of these compounds were active or inconclusive in the main read-out, so they are no random draw. Words in brackets tell the shape of the fitted curve; partial curves, single points and poor fits give uncertain potencies.

Assay: IkB Signaling
Conditions: ABC-DLBCL IkBa-CBG/CBR dual luciferase ratio (green luciferase fused to IkBa over red control in OCI-Ly3 lymphoma cells), 4 h
In short: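 Luminescence ratio of IκBα-fused green versus native red beetle luciferase in OCI-Ly3 cells, 4 h post-doxycycline with compound; red signal alone, scaled from basal (0%) to zero light (-100%), flagged nonspecific or cytotoxic effects.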

[1] = measured here: control luc red channel unless noted

## Cc1nn(C)c2c1c(C(F)(F)F)cc(=O)n2Cc1ccc(Br)cc1F
[1]
  AC50: 0.631 µM [falling, full curve]

## Cc1cccc(NC(=O)CSc2nc3n[nH]c(C)c3c(=N)n2-c2cccc(Cl)c2)c1
[1]
  AC50: 12.6 µM [falling, partial curve]

## Cc1cc(C)cc(C(=O)NCCc2sc(-c3ccc(F)cc3)nc2C)c1
[1]
  AC50: 10 µM [falling, partial curve]

## CCCOc1ccc(C(=O)N2CCC(c3nc4ccccc4s3)CC2)cc1
[1]
  AC50: 20 µM [falling, partial curve]

## O=C(C1CC1)N1CCc2cc(Br)cc(S(=O)(=O)Nc3ccc(F)c(F)c3)c21
[1]
  AC50: 10 µM [falling, partial curve]

## O=S(=O)(NCC(c1ccco1)N1CCN(c2ccccc2)CC1)c1cc(F)ccc1F (stereo not drawn)
[1]
  AC50: 25.1 µM [falling, single point]

## Cn1c(=O)oc2ccc(C(=O)CSc3nnnn3-c3ccccc3)cc21
[1]
  AC50: 31.6 µM [rising, partial curve] [measured here: IkB-luc green channel]

## N#Cc1c(N2CCN(C(=O)c3ccco3)CC2)nc(-c2ccccc2)c2c1CCCC2
[1]
  AC50: 2.51 µM [falling, full curve, poor fit]

## CNC(=O)c1ccccc1NC(=O)c1ccc(C)c(S(=O)(=O)N2CCCCC2)c1
[1]
  AC50: 25.1 µM [falling, partial curve]

## CCc1ccc2oc(-c3ccc(C)c(NC(=O)Cc4ccccc4)c3)nc2c1
[1]
  AC50: 0.158 µM [falling, full curve]

## CC(C)(C)OC(=O)N1CCC(c2c(C(=O)NCCN3CCOCC3)cnn2-c2cccc(Cl)c2)CC1
[1]
  AC50: 0.316 µM [falling, full curve, poor fit]

## CC(=O)Oc1ccccc1N1C(=O)c2ccc(C(=O)O)cc2C1=O
[1]
  AC50: 3.98 µM [falling, partial curve]

## O=C(c1cc(-c2ccc(F)cc2)on1)N1CCN(c2ccc(F)cc2)CC1
[1]
  AC50: 3.16 µM [falling, full curve]

## COc1ccc(C2=NCC(CSc3nccc(=O)[nH]3)S2)cc1 (stereo not drawn)
[1]
  AC50: 39.8 µM [falling, single point]

## Cn1nc(C(=O)N2CCN(c3ccccc3F)CC2)c2c1-c1ccccc1S(=O)(=O)C2
[1]
  AC50: 5.01 µM [falling, full curve, poor fit]

## CCOC(=O)c1ccccc1NC(=O)c1cc2ccc3cccnc3c2[nH]1
[1]
  AC50: 2.51 µM [falling, partial curve]

## CCCOC(=O)CSc1nnc(-c2ccccc2)o1
[1]
  AC50: 3.16 µM [rising, partial curve]

## CC(C)c1ccc(CNc2nc(-c3ccco3)nn2S(=O)(=O)c2ccc(F)cc2)cc1
[1]
  AC50: 12.6 µM [falling, partial curve]

## CC(C)(C)C1CCc2onc(C(=O)Nc3sc4c(c3C#N)CCCC4)c2C1 (stereo not drawn)
[1]
  AC50: 0.0794 µM [falling, full curve]

## Cc1cccc(NC(=O)N2CCC(N3CCN(Cc4ccccc4)C(=O)C3=O)CC2)c1C
[1]
  AC50: 39.8 µM [rising, single point]

## Cc1ccccc1CSc1nncn1N
[1]
  AC50: 1.26 µM [falling, full curve]

## CCOC(=O)c1c(C)[nH]c(C(=O)Cn2c(=O)c3c(ncn3CC)n(Cc3ccccc3)c2=O)c1C
[1]
  AC50: 25.1 µM [falling, partial curve]

## Cc1ccc(C)c(-n2c(SCC(=O)Nc3nnc(C)s3)nnc2-c2ccoc2C)c1
[1]
  AC50: 39.8 µM [falling, single point]

## O=C(Cn1cc(C(=O)c2ccccc2)c(=O)c2cc3c(cc21)OCCO3)Nc1ccc(F)c(F)c1
[1]
  AC50: 12.6 µM [falling, partial curve]

## Cc1ccc(C)c(N2CCN(S(=O)(=O)c3ccc(C(=O)N(C)C)s3)CC2)c1
[1]
  AC50: 15.8 µM [falling, partial curve]

## CCn1nnc2cc(C(=O)Nc3cc(C)ccc3C)ccc21
[1]
  AC50: 31.6 µM [falling, partial curve]

## CCOc1ccc(CC(=O)NCc2ccc3c(c2)CCN3C(=O)c2ccccc2)cc1OCC
[1]
  AC50: 6.31 µM [falling, single point]

## COc1ccc(NC(=O)CC2C(=O)N(c3cccc(OC)c3)C(=O)N2CCC2=CCCCC2)cc1 (stereo not drawn)
[1]
  AC50: 20 µM [falling, single point]

## Cc1ccc(NS(=O)(=O)c2ccc3nc(-c4ccccc4)[nH]c3c2)c(Br)c1
[1]
  AC50: 0.501 µM [falling, partial curve]

## Cc1ccc(Nc2nc3ccc(C(=O)c4ccccc4)cc3n3c(C)nnc23)c(C)c1
[1]
  AC50: 31.6 µM [falling, single point]

## Cc1sc2ncn(CC(=O)N(C)c3ccc(C(C)C)cc3)c(=O)c2c1S(=O)(=O)N1CCC(C)CC1
[1]
  AC50: 15.8 µM [falling, partial curve]

## CC1CCC(NC(=O)C2(C)Cc3ccccc3C(=O)N2Cc2ccc(Cl)cc2)CC1 (stereo not drawn)
[1]
  AC50: 0.0158 µM [falling, full curve, poor fit]

## COc1ccccc1-c1cc(C(=O)Nc2cc(C)on2)no1
[1]
  AC50: 0.501 µM [falling, full curve]

## CC(=O)c1cccc(NC(=O)CN2C(=O)CC(c3ccc(C)cc3C)=Nc3ccccc32)c1
[1]
  AC50: 5.01 µM [falling, partial curve]

## O=C(/C=C/c1ccc(Cl)cc1)N1CCC(c2nc3ccccc3o2)CC1
[1]
  AC50: 0.501 µM [falling, full curve]

## CCCCN(CC)CCCNC(=O)c1cn(CC)c2ccc(S(=O)(=O)N3CCc4ccccc4C3)cc2c1=O
[1]
  AC50: 20 µM [falling, single point]

## CC(=O)Nc1nnc2n1CCS2
[1]
  AC50: 0.2 µM [falling, full curve, poor fit]

## Cc1ccc(CN2CCC(CNC(=O)Nc3ccc(C)c(C)c3)C2)cc1 (stereo not drawn)
[1]
  AC50: 15.8 µM [falling, partial curve]

## Cc1noc(C)c1COC(=O)c1cc2c3ccccc3n(C)c2s1
[1]
  AC50: 20 µM [falling, partial curve]

## COc1ccc(C)cc1NC(=O)c1oc2ccc(S(=O)(=O)N3CCC4(CC3)OCCO4)cc2c1C
[1]
  AC50: 20 µM [falling, single point]

## COC(=O)c1ccc(COc2ccc3c(C)c(C)c(=O)oc3c2C)o1
[1]
  AC50: 12.6 µM [falling, partial curve]

## CCOC(=O)c1ccc(N2CCN(c3cc(C)ccc3C)CC2)c(NC(=O)Nc2ccc(Cl)cc2)c1
[1]
  AC50: 0.0631 µM [rising, full curve, poor fit]

## CCCCc1ccc2nc(NC(=O)OC)[nH]c2c1
Measured here: IkB-luc green channel
  AC50: 0.501 µM [rising, full curve]
Measured here: control luc red channel
  AC50: 0.158 µM [rising, full curve]

## Cc1nc2nc(C)c(NS(=O)(=O)c3ccc(CC(C)C)cc3)c(=O)n2[nH]1
[1]
  AC50: 20 µM [falling, partial curve]

## CCn1c(CN2CCOCC2)nc2cc(NC(=O)c3cccc([N+](=O)[O-])c3)ccc21
[1]
  AC50: 25.1 µM [falling, partial curve]

## NC(=O)CSc1nc2sc3c(c2c2ncnn12)CCCC3
[1]
  AC50: 15.8 µM [rising, partial curve]

## Cc1cc(NC(=O)CCCS(=O)(=O)c2nc(-c3cccs3)cc(C(F)(F)F)n2)no1
[1]
  AC50: 3.16 µM [falling, full curve]

## Cn1c(=O)c2c(-c3ccccc3)n(CCCO)cc2n(C)c1=O
[1]
  AC50: 12.6 µM [rising, partial curve]

## CC1CC(C)CN(S(=O)(=O)c2ccc(C(=O)N3CCN(c4ccccc4)CC3)cc2)C1 (stereo not drawn)
[1]
  AC50: 10 µM [falling, partial curve]

## CCN(CC)S(=O)(=O)c1ccc2oc(C(=O)NCc3ccc(F)cc3)c(C)c2c1
[1]
  AC50: 10 µM [falling, partial curve]

## CCN(CC)CCOC(=O)c1ccc(NC(=O)c2cc3c(s2)-c2ccccc2OC3)cc1
[1]
  AC50: 0.631 µM [falling, partial curve]

## Clc1cccc(C2=NC(c3cccs3)=Nc3ccc(Br)cc3N2)c1
[1]
  AC50: 15.8 µM [falling, single point]

## Cc1nc(-c2ccc(S(=O)(=O)Nc3ccc(Cl)c(C(F)(F)F)c3)cc2)co1
[1]
  AC50: 31.6 µM [falling, partial curve, poor fit]

## CCOc1ccccc1CNC(=O)c1cnc2sc(N(CC)CC)nn2c1=O
[1]
  AC50: 39.8 µM [falling, single point]

## CC(C)CN(CCNC(=O)c1cc(-c2cccs2)nc2ccccc12)CC(C)C
[1]
  AC50: 15.8 µM [falling, single point]

## Cn1c(=O)c2c(c3ccccc31)OC(=O)CC2c1cccc(Cl)c1 (stereo not drawn)
[1]
  AC50: 2.51 µM [falling, partial curve]

## COc1ccccc1/C=C/c1nc(C#N)c(NCC(C)C)o1
[1]
  AC50: 25.1 µM [falling, single point]

## Cc1ccc(-c2nc(CCNC(=O)C(=O)Nc3c(C)cccc3C)cs2)cc1
[1]
  AC50: 0.631 µM [rising, full curve]

## COc1ccccc1CNc1ncnc2c1nnn2Cc1ccccc1
[1]
  AC50: 12.6 µM [falling, partial curve]

## Cc1ccc(-c2nn(C)c(=O)c3ccccc23)cc1S(=O)(=O)N1CCCC1
[1]
  AC50: 25.1 µM [rising, partial curve] [measured here: IkB-luc green channel]

## COc1cc2[nH]c3c(N4CCN(c5ccccn5)CC4)ncnc3c2cc1OC
[1]
  AC50: 3.16 µM [falling, full curve, poor fit]

## Cc1nc(NCc2ccco2)c2c3c(sc2n1)CCC3
[1]
  AC50: 39.8 µM [falling, single point]
